Drawing on publication PMC10812545, “The Binding of HSPA8 and Mitochondrial ALDH2 Mediates Oxygen-Glucose Deprivation-Induced Fibroblast Senescence” (Antioxidants, 2023), this text covers binding for two molecules.

The test addresses T1, Aldehyde dehydrogenase 2 (ALDH2) (mouse (endogenous in NIH3T3)) (UniProt P47738).
T1 sequence: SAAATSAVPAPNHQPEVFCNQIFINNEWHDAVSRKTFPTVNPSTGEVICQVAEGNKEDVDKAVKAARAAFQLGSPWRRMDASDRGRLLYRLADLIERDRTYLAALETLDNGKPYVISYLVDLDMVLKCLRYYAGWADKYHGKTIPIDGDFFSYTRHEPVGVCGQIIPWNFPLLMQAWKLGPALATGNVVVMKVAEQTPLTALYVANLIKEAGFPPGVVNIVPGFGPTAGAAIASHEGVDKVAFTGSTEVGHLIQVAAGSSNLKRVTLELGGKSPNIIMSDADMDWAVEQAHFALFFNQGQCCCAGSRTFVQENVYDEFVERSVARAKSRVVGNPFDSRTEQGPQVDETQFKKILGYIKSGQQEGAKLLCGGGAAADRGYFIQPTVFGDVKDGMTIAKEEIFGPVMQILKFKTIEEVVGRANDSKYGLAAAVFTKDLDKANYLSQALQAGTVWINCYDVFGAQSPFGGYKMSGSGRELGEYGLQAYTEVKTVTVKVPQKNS
Description: affinity purification with mass spectrometry; NIH3T3 cells after OGD for 4 h; lysate immunoprecipitated with anti-ALDH2 antibody; LC-MS/MS of the immunoprecipitate.

No constants are given. Whether binding was seen depends on the method and setting. In cells and extracts the contact can be indirect. A yes stands for co-enrichment or nearness to the bait. Other partners may have been found.

In the case of Impdh2 (from UniProt P24547 1-514), the binding result is on record as “binds”.

B1: Hnmph1 (protein, UniProt O35737 1-449)
chain: MMLGAEGGEGFVVKVRGLPWSCSADEVQRFFSDCKIQNGAQGIRFIYTREGRPSGEAFVELESEDEVKLALKKDRETMGHRYVEVFKSNNVEMDWVLKHTGPNSPDTANDGFVRLRGLPFGCSKEEIVQFFSGLEIVPNGITLPVDFQGRSTGEAFVQFASQEIAEKALKKHKERIGHRYIEIFKSSRAEVRTHYDPPRKLMAMQRPGPYDRPGAGRGYNSIGRGAGFERMRRGAYGGGYGGYDDYNGYNDGYGFGSDRFGRDLNYCFSGMSDHRYGDGGSTFQSTTGHCVHMRGLPYRATENDIYNFFSPLNPVRVHIEIGPDGRVTGEADVEFATHEDAVAAMSKDKANMQHRYVELFLNSTAGASGGAYEHRYVELFLNSTAGASGGAYGSQMMGGMGLSNQSSYGGPASQQLSGGYGGGYGGQSSMSGYDQVLQENSSDFQSNIA
As to B1, the binding result is given as “binds”.
